Results reported in patent US20110251130A1.
These are yes or no findings as the source states them, for the method shown. Binding seen in cells or lysates may run through a third protein. Some binding calls cover weakened binding; strength is not graded here. Tags and fused reporters may be left off the sequences shown. Blank lines part the entries; values can stand above or below the binder they belong to.

Protein sequences, listed by entry. Tags and fused reporters are not part of them.
UniProt P35222: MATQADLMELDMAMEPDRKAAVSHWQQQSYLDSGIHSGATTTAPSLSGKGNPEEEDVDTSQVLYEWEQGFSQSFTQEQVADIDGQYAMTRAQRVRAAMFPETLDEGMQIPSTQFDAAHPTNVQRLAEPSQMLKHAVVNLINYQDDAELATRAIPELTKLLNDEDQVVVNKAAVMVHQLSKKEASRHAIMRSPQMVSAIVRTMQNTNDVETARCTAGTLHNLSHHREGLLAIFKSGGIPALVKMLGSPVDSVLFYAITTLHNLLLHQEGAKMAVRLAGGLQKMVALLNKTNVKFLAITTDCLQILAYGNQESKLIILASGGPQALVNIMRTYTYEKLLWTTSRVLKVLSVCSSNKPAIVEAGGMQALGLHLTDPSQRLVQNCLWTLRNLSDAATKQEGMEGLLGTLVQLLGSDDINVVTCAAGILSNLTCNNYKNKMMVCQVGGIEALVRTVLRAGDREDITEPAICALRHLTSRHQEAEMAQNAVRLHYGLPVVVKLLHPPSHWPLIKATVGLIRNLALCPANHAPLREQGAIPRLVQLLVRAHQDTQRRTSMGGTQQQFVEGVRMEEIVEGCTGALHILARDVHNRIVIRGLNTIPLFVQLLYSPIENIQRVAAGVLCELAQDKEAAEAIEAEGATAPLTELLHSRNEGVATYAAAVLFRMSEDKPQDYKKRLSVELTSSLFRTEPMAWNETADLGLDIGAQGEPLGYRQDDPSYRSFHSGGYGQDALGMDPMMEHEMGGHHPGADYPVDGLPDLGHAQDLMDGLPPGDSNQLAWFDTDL

How the values were obtained:
[1] = target: V5-tagged β-catenin (UniProt P35222); assay: co-immunoprecipitation from lysates of cotransfected cells (FLAG-tagged WTX and β-catenin)
[2] = target: V5-tagged β-catenin (UniProt P35222); assay: co-immunoprecipitation in HEK293 cells; IP anti-V5, detection anti-FLAG

binding [1]: binds | binding [2]: binds
B1: FLAG-tagged WTXS1 (full-length wild type human WTX isoform) (protein, not shown: small tags and cut ends)
chain: METQKDEAAQAKGAAASGSTREQTAEKGAKNKAAEATEGPTSEPSSSGPGRLKKTAMKLFGGKKGICTLPSFFGGGRSKGSGKGSSKKGLSKSKTHDGLSEAAHGPEDVVSEGTGFSLPLPELPCQFPSSQSAHGALETGSRCKTSVAGATEKAVAEKFPSMPKPKKGLKGFFSSIRRHRKSKVTGAEQSEPGAKGPERVRARPHEHVSSAPQVPCFEETFQAPRKENANPQDAPGPKVSPTPEPSPPATEKMACKDPEKPMEACASAHVQPKPAPEASSLEEPHSPETGEKVVAGEVNPPNGPVGDPLSLLFGDVTSLKSFDSLTGCGDIIAEQDMDSMTDSMASGGQRANRDGTKRSSCLVTYQGGGEEMALPDDDDEEEEEEEEVELEEEEEEVKEEEEDDDLEYLWETAQMYPRPNMNLGYHPTTSPGHHGYMLLDPVRSYPGLAPGELLTPQSDQQESAPNSDEGYYDSTTPGFEDDSGEALGLVRRDCLPRDSYSGDALYEFYEPDDSLENSPPGDDCLYDLHGRSSEMFDPFLNFEPFLSSRPPGAMETEEERLVTIQKQLLYWELRREQLEAQEARAREAHAREAHAREAYTREAYGREAYAREAHTWEAHGREARTREAQAREVRCRETQVRETQARQEKPVLEYQMRPLGPSVMGLAAGVSGTSQISHRGITSAFPTTASSEPDWRDFRPLEKRYEGTCSKKDQSTCLMQLFQSDAMFEPDMQEANFGGSPRRAYPTYSPPEDPEEEEVEKEGNATVSFSQALVEFTSNGNLFSSMSCSSDSDSSFTQNLPELPPMVTFDIADVERDGEGKCEENPEFHNDEDLAASLEAFELGYYHKHAFNNYHSRFYQGLPWGVSSLPRYLGLPGLHPRPPPAAMALNRRSRSLDTAETLEMELSNSHLVQGYLESDELQAQQEDSDEEDEEEEEGEWSRDSPLSLYTEPPGAYDWPAWAPCPLPVGPGPAWISPNQLDRPSSQSPYRQATCCIPPMTMSISLSVPESRAPGESGPQLARPSHLHLPMGPCYNLQPQASQSMRARPRDVLLPVDEPSCSSSSGGFSPSPLPQAKPVGITHGIPQLPRVRPEHPQPQPTHYGPSSLDLSKERAEQGASLATSYSSTAMNGNLAK

binding [1]: binds | binding [2]: binds
B2: FLAG-tagged WTXS2 (shorter splice isoform of human WTX lacking residues 50-327) (protein, not shown: small tags and cut ends)
chain: METQKDEAAQAKGAAASGSTREQTAEKGAKNKAAEATEGPTSEPSSSGPGCGDIIAEQDMDSMTDSMASGGQRANRDGTKRSSCLVTYQGGGEEMALPDDDDEEEEEEEEVELEEEEEEVKEEEEDDDLEYLWETAQMYPRPNMNLGYHPTTSPGHHGYMLLDPVRSYPGLAPGELLTPQSDQQESAPNSDEGYYDSTTPGFEDDSGEALGLVRRDCLPRDSYSGDALYEFYEPDDSLENSPPGDDCLYDLHGRSSEMFDPFLNFEPFLSSRPPGAMETEEERLVTIQKQLLYWELRREQLEAQEARAREAHAREAHAREAYTREAYGREAYAREAHTWEAHGREARTREAQAREVRCRETQVRETQARQEKPVLEYQMRPLGPSVMGLAAGVSGTSQISHRGITSAFPTTASSEPDWRDFRPLEKRYEGTCSKKDQSTCLMQLFQSDAMFEPDMQEANFGGSPRRAYPTYSPPEDPEEEEVEKEGNATVSFSQALVEFTSNGNLFSSMSCSSDSDSSFTQNLPELPPMVTFDIADVERDGEGKCEENPEFHNDEDLAASLEAFELGYYHKHAFNNYHSRFYQGLPWGVSSLPRYLGLPGLHPRPPPAAMALNRRSRSLDTAETLEMELSNSHLVQGYLESDELQAQQEDSDEEDEEEEEGEWSRDSPLSLYTEPPGAYDWPAWAPCPLPVGPGPAWISPNQLDRPSSQSPYRQATCCIPPMTMSISLSVPESRAPGESGPQLARPSHLHLPMGPCYNLQPQASQSMRARPRDVLLPVDEPSCSSSSGGFSPSPLPQAKPVGITHGIPQLPRVRPEHPQPQPTHYGPSSLDLSKERAEQGASLATSYSSTAMNGNLAK
